Laboratory results published in the supplement of paper PMC10849652.
Some of the results follow. Residues, ends and D or L forms follow the SMILES beside them. *: point of attachment. Cbz = O=C(OCc1ccccc1)*

Amino acid sequences for entries named in this document (tags omitted). A change or cut given only in a name is not applied to a line headed by its entry.
UniProt O00116: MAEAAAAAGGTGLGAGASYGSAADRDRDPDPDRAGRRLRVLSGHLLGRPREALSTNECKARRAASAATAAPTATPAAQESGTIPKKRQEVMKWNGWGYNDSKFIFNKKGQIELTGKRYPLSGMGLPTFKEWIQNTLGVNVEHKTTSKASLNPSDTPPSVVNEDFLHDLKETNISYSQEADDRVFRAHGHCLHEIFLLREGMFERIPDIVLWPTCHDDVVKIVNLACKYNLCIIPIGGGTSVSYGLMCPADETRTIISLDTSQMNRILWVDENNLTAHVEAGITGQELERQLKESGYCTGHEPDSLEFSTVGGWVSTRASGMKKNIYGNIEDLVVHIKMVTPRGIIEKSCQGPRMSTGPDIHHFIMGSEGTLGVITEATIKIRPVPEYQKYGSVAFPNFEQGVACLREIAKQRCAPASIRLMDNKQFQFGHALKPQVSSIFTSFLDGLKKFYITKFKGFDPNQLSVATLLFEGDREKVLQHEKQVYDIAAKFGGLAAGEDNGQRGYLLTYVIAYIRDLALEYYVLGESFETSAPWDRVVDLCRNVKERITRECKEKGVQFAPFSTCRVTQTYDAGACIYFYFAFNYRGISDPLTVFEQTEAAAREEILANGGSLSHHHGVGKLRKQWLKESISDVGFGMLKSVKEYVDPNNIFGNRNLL
UniProt O15120: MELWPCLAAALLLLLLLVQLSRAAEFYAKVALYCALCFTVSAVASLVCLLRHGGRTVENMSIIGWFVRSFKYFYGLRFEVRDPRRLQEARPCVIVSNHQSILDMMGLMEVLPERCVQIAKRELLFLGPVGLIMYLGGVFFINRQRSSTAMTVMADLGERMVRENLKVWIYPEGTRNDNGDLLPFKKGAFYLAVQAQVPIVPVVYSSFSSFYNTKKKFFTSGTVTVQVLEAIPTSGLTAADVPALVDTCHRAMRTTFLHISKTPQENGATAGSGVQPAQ
UniProt P13716: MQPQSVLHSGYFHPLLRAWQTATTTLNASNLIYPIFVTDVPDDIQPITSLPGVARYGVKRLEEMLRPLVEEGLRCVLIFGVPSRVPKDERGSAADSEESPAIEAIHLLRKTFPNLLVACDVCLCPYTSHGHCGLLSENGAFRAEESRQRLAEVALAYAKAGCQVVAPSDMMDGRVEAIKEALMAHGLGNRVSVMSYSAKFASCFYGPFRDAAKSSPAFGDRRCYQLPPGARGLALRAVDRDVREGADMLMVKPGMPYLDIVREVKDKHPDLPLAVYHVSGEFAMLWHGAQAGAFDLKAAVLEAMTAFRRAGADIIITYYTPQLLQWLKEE
UniProt O43488: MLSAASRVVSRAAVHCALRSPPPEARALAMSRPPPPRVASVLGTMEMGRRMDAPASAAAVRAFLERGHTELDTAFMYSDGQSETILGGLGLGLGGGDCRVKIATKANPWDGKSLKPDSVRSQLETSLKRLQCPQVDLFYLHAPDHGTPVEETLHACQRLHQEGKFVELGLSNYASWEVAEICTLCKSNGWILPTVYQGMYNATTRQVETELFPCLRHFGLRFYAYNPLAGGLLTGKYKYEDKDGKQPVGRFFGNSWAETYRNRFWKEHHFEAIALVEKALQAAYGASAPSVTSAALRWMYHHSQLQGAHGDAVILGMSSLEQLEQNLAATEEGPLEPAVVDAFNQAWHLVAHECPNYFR
UniProt Q13155: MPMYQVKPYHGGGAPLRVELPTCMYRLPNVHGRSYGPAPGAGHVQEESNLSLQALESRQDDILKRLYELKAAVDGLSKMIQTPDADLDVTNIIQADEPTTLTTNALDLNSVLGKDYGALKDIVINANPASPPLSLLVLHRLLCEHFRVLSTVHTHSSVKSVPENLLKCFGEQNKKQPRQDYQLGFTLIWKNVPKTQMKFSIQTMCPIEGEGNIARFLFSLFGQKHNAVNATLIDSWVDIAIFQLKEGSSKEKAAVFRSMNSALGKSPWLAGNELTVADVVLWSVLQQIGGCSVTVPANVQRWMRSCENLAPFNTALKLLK
UniProt P30566: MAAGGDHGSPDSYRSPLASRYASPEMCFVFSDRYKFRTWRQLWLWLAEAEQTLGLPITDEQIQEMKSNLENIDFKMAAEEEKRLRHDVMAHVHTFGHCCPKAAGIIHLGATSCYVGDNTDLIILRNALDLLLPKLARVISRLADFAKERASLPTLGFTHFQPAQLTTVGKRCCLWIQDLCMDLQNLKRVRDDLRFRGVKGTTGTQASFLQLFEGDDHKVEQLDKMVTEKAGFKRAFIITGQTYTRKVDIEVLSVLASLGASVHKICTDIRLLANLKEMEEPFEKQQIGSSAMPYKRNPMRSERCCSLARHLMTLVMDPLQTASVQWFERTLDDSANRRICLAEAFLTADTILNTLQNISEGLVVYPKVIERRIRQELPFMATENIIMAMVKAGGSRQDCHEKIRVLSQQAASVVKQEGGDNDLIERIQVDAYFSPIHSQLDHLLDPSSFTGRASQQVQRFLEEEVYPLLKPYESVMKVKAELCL
UniProt Q3KRA9: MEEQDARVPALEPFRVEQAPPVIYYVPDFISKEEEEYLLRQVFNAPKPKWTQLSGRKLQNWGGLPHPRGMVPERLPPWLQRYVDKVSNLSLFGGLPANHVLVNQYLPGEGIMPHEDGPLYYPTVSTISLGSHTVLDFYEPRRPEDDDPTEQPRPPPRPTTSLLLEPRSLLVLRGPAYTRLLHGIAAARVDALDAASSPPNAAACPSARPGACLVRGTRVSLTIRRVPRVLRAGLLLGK

Key:
Assay in all cases: log2 fold change, soluble protein after heating vs DMSO (PISA); higher = thermal stabilisation; K562 cells, 10 uM, 30 min; active = over 0.2 and 3.5 SD of the protein, either way, in both replicates (recomputed)
IRAK-1-4 Inhibitor I = compound: C1COCCN1CCN2C3=CC=CC=C3N=C2NC(=O)C4=CC(=CC=C4)[N+](=O)[O-] [IRAK-1-4 Inhibitor I]
Outline: (§1)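 K562 cells at 2×10^6 cells/mL were treated for 30 min with 10 μM compound, and aliquots were heated for 3 min over 48°C-58°C before pooling. Extraction used PBS with 0.5% NP-40 at 4°C, and soluble protein was the supernatant after 21,000xg for 90 min, measured by TMTpro 16plex LC-MS/MS with channel sums equalised. Thermal stability values, relative to control samples and from duplicates, are log2 fold changes.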

ibrutinib = compound: C=CC(=O)N1CCC[C@@H](n2nc(-c3ccc(Oc4ccccc4)cc3)c3c(N)ncnc32)C1 [ibrutinib]
Outline: as §1

[1] = compound: CC(=O)c1cnc2ccc(-c3cc(Cl)c(O)c(Cl)c3)nc2c1N[C@H]1CC[C@H](CN(C)C)CC1
Outline: as §1

ralimetinib = compound: CC(C)(C)Cn1c(N)nc2ccc(-c3[nH]c(C(C)(C)C)nc3-c3ccc(F)cc3)nc21 [ralimetinib]
Outline: as §1

[2] = compound: CC(C)(O)CC(=O)NCCn1ccc2ncnc(Nc3ccc(Oc4cccc(C(F)(F)F)c4)c(Cl)c3)c21
Outline: as §1

[3] = compound: CC(C)C1=C2N=C(C=C(N2N=C1)NCC3=CC=CC=C3)NCCCCCCN
Outline: as §1

[4] = compound: CC(C)C[C@@H](C=O)NC(=O)[C@H](CC(C)C)NC(=O)[C@H](CC(C)C)NC(=O)OCc1ccccc1
Outline: as §1

pinometostat = compound: CC(C)N(C[C@H]1O[C@@H](n2cnc3c(N)ncnc32)[C@H](O)[C@@H]1O)[C@H]1C[C@@H](CCc2nc3cc(C(C)(C)C)ccc3[nH]2)C1 [pinometostat]
Outline: as §1

[5] = compound: CC1=C(C2=C(C=C1)C(=O)C3=CC=CC=C3N2CCCN)C
Outline: as §1

[6] = compound: CC1=C(C(CC(=O)N1)C2=CC=C(C=C2)C(F)(F)F)C(=O)NC3=C(C=C4C(=C3)C=NN4)F
Outline: as §1

Measured: log2 fold change

AGPS (UniProt O00116)
inactive: IRAK-1-4 Inhibitor I 0.025 | ibrutinib -0.005 | [1] -0.028 | ralimetinib 0.007 | [2] -0.008 | [3] -0.123 | [4] -0.025 | pinometostat -0.041 | [5] 0.031

AGPAT2 (UniProt O15120)
inactive: IRAK-1-4 Inhibitor I 0.162 | ibrutinib -0.071 | [1] -0.097 | ralimetinib -0.059 | [2] -0.048 | [3] 0.053 | [4] 0.05 | pinometostat -0.073 | [6] -0.033 | [5] 0.087

ALAD isoform 2 (UniProt P13716)
inactive: IRAK-1-4 Inhibitor I 0.009 | ibrutinib 0.027 | [1] -0.032 | ralimetinib -0.003 | [2] -0.022 | [3] 0.089 | [4] -0.001 | pinometostat -0.027 | [6] 0.003 | [5] 0.019

AKR7A2 (UniProt O43488)
inactive: IRAK-1-4 Inhibitor I 0.042 | ibrutinib -0.001 | [1] 0.069 | ralimetinib -0.037 | [2] -0.028 | [3] -0.007 | [4] 0.02 | pinometostat -0.033 | [6] -0.008 | [5] -0.004

AIMP2 (UniProt Q13155)
inactive: IRAK-1-4 Inhibitor I -0.105 | ibrutinib 0.025 | [1] 0.285 | ralimetinib 0.203 | [2] 0.054 | [3] -0.353 | [4] 0.141 | pinometostat 0.428 | [6] 0.05 | [5] -0.07

ADSL (UniProt P30566)
inactive: IRAK-1-4 Inhibitor I 0.036 | ibrutinib 0.019 | [1] 0.015 | ralimetinib -0.037 | [2] -0.027 | [3] 0.095 | [4] -0.025 | pinometostat -0.046 | [6] 0.012 | [5] -0.022

ALKBH6 isoform 2 (UniProt Q3KRA9)
inactive: IRAK-1-4 Inhibitor I 0.13 | ibrutinib -0.039 | [1] 0.01 | ralimetinib 0.017 | [2] 0.031 | [3] 0.02 | [4] 0.126 | pinometostat -0.033 | [6] -0.002 | [5] 0.029
